{
  "source": "the supplement of paper PMC11732987",
  "about": "“Enantioselective OTUD7B fragment discovery through chemoproteomics screening and high-throughput optimisation” (Communications Chemistry, 2025)",
  "note": "Some of the results follow. The data scatter; read single values as rough.",
  "data": [
    {"target": "T1, BMS1 C317 (UniProt Q14692)", "T1 sequence (whole entry)": "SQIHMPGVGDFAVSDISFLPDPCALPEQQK", "assay": "log2 mean competition ratio of IA-DTB cysteine labelling (DMSO/compound) (log2 ratio); higher = stronger cysteine engagement by compound", "conditions": "50 µM; treatment time: 4 h; cell line lysate: HEK293T", "description": "(§1)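 IA-DTB competitive cysteine chemoproteomics in HEK293T RIPA lysate. Lysates were treated with compound 29 or 30 at 50 or 200 µM for 4 h, then IA-DTB (500 µM, 1 h), trypsin-digested, NeutrAvidin-enriched and analysed by diaPASEF. Competition ratio = intensity DMSO / intensity compound (n=4 treated, n=64 DMSO); binding: mean log2 CR ≥ 1 and p ≤ 0.05 plus QC filters. Target is the cysteine site.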", "values": [
      {"smiles": "O=C(CCl)N[C@H]1CCCc2ccccc21", "log2 mean competition ratio": -0.279},
      {"smiles": "O=C(CCl)N[C@@H]1CCCc2ccccc21", "log2 mean competition ratio": 0.537}
    ]},
    {"target": "T1, BMS1 C317", "assay": "log2 mean competition ratio of IA-DTB cysteine labelling (DMSO/compound) (log2 ratio); higher = stronger cysteine engagement by compound", "conditions": "200 µM; treatment time: 4 h; cell line lysate: HEK293T", "description": "as §1", "values": [
      {"smiles": "O=C(CCl)N[C@H]1CCCc2ccccc21", "log2 mean competition ratio": 0.37},
      {"smiles": "O=C(CCl)N[C@@H]1CCCc2ccccc21", "log2 mean competition ratio": 0.274}
    ]}
  ]
}
